Test results as given in patent US20050076398A1, “Animal model of chronic stress diseases and method for producing the same” (Ajinomoto Co., Inc., priority 2002, published 2005).

System: lysine deficient rats
Test: Effect of a medicine on abnormal bowel movement of lysine deficient rats (carmine dye feces count)
Format: in vivo, rats (male Wistar)
Conditions: oral administration with carmine dye; rats fed low lysine diet 7 days, fasted one day; Dunnett's method

Row | Structure (SMILES) | acceleration of the excretion of carmine-containing feces
1 | CN1[C@@H]2CC[C@H]1C[C@@H](OC(=O)C(CO)c1ccccc1)C2 (some centres unmarked) [Atropine] | significantly control the acceleration of the excretion of the feces
2 | CN1C(=O)CN=C(c2ccccc2)c2cc(Cl)ccc21 [Diazepam] | significantly control the acceleration of the excretion of the feces
